These results are taken from article PMC7819943, “Rice protein-binding microarrays: a tool to detect cis-acting elements near promoter regions in rice”.

Sequences of proteins named here, by UniProt entry; tags and fusion partners are left off.
UniProt Q0JBA9, entry or part of it: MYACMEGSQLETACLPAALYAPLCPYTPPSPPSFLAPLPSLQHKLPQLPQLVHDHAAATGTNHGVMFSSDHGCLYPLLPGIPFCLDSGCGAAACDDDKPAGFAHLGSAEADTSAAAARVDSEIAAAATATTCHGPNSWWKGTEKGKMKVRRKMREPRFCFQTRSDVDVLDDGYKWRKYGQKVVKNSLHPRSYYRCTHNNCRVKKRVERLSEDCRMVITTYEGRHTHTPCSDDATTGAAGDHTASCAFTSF

Some of the results follow.

The target of the assay is OsWRKY34 (Oryza sativa, UniProt Q0JBA9 1-250). Description: protein-binding microarray (RPBM); PBS, 2% BSA, 51.3 ng/ul salmon testes DNA, 50 uM zinc acetate, 200 nM TF, 25 C, 1 h; high values mean tight binding. The settings on record: protein: recombinant; tags: N-terminal polyhistidine and DsRed monomer fusion (pET32a); label: CyDye5-dUTP incorporated in the synthesized complementary strand; 3' TTTTT single-stranded linker to array surface; dsDNA, one strand shown. The method in brief: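 Using Ni–NTA, transcription factors fused N-terminally to polyhistidine and DsRed were purified after expression in E. coli BL21-CodonPlus. These were incubated at 200 nM with a blocked, double-stranded custom Agilent array for 1 h at 25 °C in a buffer containing 50 µM zinc acetate, and the array was washed. The binding signal is per-feature fluorescence intensity (arbitrary units) on an Axon 4000B scanner.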
Turning to “CCGCGCCACCGCCGTCGCCGCCGCCCTCGACTGCCGCCGCCGGAGTCACCTAGTGCAG”, the binding signal is 10500 fluorescence intensity (a.u.).

With “CTCCTGTCTTCCGGCTAAAGTTCGGCACAACATGTTCCAGCGGAGTCACCTAGTGCAG”, the binding signal was 8380 fluorescence intensity (a.u.). As to “AATACTACCTCCGTTTTAAAATGTTTGACGCCGTTGATATCGGAGTCACCTAGTGCAG”, the binding signal was 8440 fluorescence intensity (a.u.).

For the sequence “TCCTTCGTCTCGACTCCAGTTGGGGAGGCATTCTTTTCTTCGGAGTCACCTAGTGCAG”, the binding signal was 9420 fluorescence intensity (a.u.). To “TCGTGAGAGTGTTATACAGGTGTGTTTGCTCGTATTTCTACGGAGTCACCTAGTGCAG” belongs 8060 fluorescence intensity (a.u.); to “ACCATCCTGCTGCAACTGGCACTTTCTTCACTGCAATGCTCGGAGTCACCTAGTGCAG”, 9970 fluorescence intensity (a.u.); to “GTCGGTCCAGAATTTTTGATGTGCACGCTTATGTGCGCGCCGGAGTCACCTAGTGCAG”, 8170 fluorescence intensity (a.u.).

Regarding “CTCCATTTAACAGATGACGTCGTTGACTTTTTCTTACATGCGGAGTCACCTAGTGCAG”, the binding signal was 26900 fluorescence intensity (a.u.). To “TTGATGACCTGTATTCTCATGATTCACTTTCAAGTTCAGTCGGAGTCACCTAGTGCAG” belongs 8240 fluorescence intensity (a.u.); to “CGTGGCTTCTCATCTTCTGCCTCCACTTCTCCGTCTTCGACGGAGTCACCTAGTGCAG”, 11100 fluorescence intensity (a.u.). With “GCAGTTTTGCACTGTTCATATCCAACATTTGACCATTCATCGGAGTCACCTAGTGCAG”, the binding signal was 8770 fluorescence intensity (a.u.). Then “CCTCTACTGGGTTGGCGGGGAGTGGATCGGGGATCTGCACCGGAGTCACCTAGTGCAG”, with 10700 fluorescence intensity (a.u.). Then “TTATATTCACAATCACTTTTTCTTTTGTCACATCTTTATACGGAGTCACCTAGTGCAG”, with 10200 fluorescence intensity (a.u.); and “CTCCGCTCGCCAGCCTATCCACCTTGCGTCGCTGCTCACGCGGAGTCACCTAGTGCAG”, with 9010 fluorescence intensity (a.u.). To “TTGGCGGTGGTGGCGACTTAATTCCGCGTGGCGCGACGGCCGGAGTCACCTAGTGCAG” belongs 9260 fluorescence intensity (a.u.). “CTCGTTCCGTTGTCTCAGCGCGTTTGACCAGCGATCTACTCGGAGTCACCTAGTGCAG”: the binding signal is 12200 fluorescence intensity (a.u.). To “CCCCAACAAGTGCCTCGTCGCCTGCGCCTACTGCCTCACCCGGAGTCACCTAGTGCAG” belongs 8560 fluorescence intensity (a.u.); to “ATATCGTTCGGATGTTTTTACTCTTTTTTTTTCGATTTGTCGGAGTCACCTAGTGCAG”, 10100 fluorescence intensity (a.u.); to “GCGTTACATACATCCTTATTATGTTGTTCATGTTTATAAACGGAGTCACCTAGTGCAG”, 8240 fluorescence intensity (a.u.). Then “ATCTTAATTTACCTTTCACTGCATCTAATATGTCACTTTGCGGAGTCACCTAGTGCAG”, with 8630 fluorescence intensity (a.u.). To “CCCATCGGTTTATGCAGCATCGCGCTTCTGCCGCTGCCCGCGGAGTCACCTAGTGCAG” belongs 9160 fluorescence intensity (a.u.); to “GATGTGGTATTAATATATGGTTGATTAAGTTTTAATTATTCGGAGTCACCTAGTGCAG”, 8460 fluorescence intensity (a.u.). Consider “GACCGGCGAAACCGACGCGAACCTGCCGTTATCCCACAACCGGAGTCACCTAGTGCAG”, for which the binding signal is 11900 fluorescence intensity (a.u.). To “TATAAATCTGTAACCCGTTGTCCTTCTCTTTCCTTATTTACGGAGTCACCTAGTGCAG” belongs 8680 fluorescence intensity (a.u.); to “ACATCCTATCCCGTGCATTGAATCAGCATTGTACAGCAAACGGAGTCACCTAGTGCAG”, 8950 fluorescence intensity (a.u.); to “CGCCGACTTCGCGACGCCACGCTGTCTTTGACCGGCTCCGCGGAGTCACCTAGTGCAG”, 8040 fluorescence intensity (a.u.).

Take “AGAACACGCCACCTTCCGCATCGTCGGCAGCCGCCTCCTCCGGAGTCACCTAGTGCAG”: the binding signal is 9320 fluorescence intensity (a.u.). Then “TTTCTTTAGGTCAGTTTTGGTTATTTCTCAGTCAGATCATCGGAGTCACCTAGTGCAG”, with 12100 fluorescence intensity (a.u.).

Turning to “AAAAAATAACACACACCCTTAGGCCATTCGATTTTATTTTCGGAGTCACCTAGTGCAG”, the binding signal was 11100 fluorescence intensity (a.u.).

“GATCTCAGCTGTCTAAGCTTCATTTCAGGTATCAACACTTCGGAGTCACCTAGTGCAG”: the binding signal was 12100 fluorescence intensity (a.u.). To “ACCATGTTTGGTCCTTAGTACTTACTACCTCCGTATTTTACGGAGTCACCTAGTGCAG” belongs 8810 fluorescence intensity (a.u.). To “ACTGCTCGCCATTGGTCTGACCATCGTCTTGCCACCGGACCGGAGTCACCTAGTGCAG” belongs 10100 fluorescence intensity (a.u.); to “ATGCGTGCTGCCGACTGCCGAGTGTCACCGAATCCTTAATCGGAGTCACCTAGTGCAG”, 8280 fluorescence intensity (a.u.). In the case of “GCCCACTAAAACAATCCGGCCAGTTAACACTTCACACCCCCGGAGTCACCTAGTGCAG”, the binding signal was 8730 fluorescence intensity (a.u.).

As to “TGGTCACCTGGGAAGGTCGCTGTCTCTGCCTTTTGTTTTCCGGAGTCACCTAGTGCAG”, the binding signal was 13300 fluorescence intensity (a.u.). To “AAAATTTCTGCTTCAAATTTCCCATCCTGTCCTTAAGCCGCGGAGTCACCTAGTGCAG” belongs 8040 fluorescence intensity (a.u.). Turning to “GCCATCGTCCTTATCTGCATCAGTAAAGTCAATGGCCATCCGGAGTCACCTAGTGCAG”, the binding signal was 10300 fluorescence intensity (a.u.). Then “TTCTCCACCCACCTCCTCATCTAAACAATCACAACAATTTCGGAGTCACCTAGTGCAG”, with 8370 fluorescence intensity (a.u.); and “CCATTCTCGTTTTCCACGGCTCAACCGCTCTCTTCGCTCGCGGAGTCACCTAGTGCAG”, with 9330 fluorescence intensity (a.u.). To “CATGCCAGGTGTTGGGCCTCATCGTCGGCCGCTTAGTATCCGGAGTCACCTAGTGCAG” belongs 8380 fluorescence intensity (a.u.).

As for “TCTTTTTGGTAGGTACTTTGGCTGCGTTCCGCCGTACGTTCGGAGTCACCTAGTGCAG”, the binding signal is 9510 fluorescence intensity (a.u.). To “ACGCACCTGCACATTTGGAACTTGTACTACACGTGTTTCACGGAGTCACCTAGTGCAG” belongs 8320 fluorescence intensity (a.u.).
